Measured values: PMC7819943, “Rice protein-binding microarrays: a tool to detect cis-acting elements near promoter regions in rice”
The list shows a part of the results.

Protein sequences, listed by entry. Tags and fused reporters are not part of them.
UniProt Q0JBA9, entry or part of it: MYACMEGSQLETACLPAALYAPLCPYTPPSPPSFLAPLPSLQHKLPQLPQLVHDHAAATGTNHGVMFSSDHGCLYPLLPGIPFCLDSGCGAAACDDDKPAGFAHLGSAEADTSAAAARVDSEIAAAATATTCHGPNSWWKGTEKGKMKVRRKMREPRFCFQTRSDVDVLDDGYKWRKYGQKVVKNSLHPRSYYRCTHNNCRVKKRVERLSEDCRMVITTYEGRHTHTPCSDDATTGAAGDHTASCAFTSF

These sequences were tested against OsWRKY34 (Oryza sativa, UniProt Q0JBA9 1-250) (assay: protein-binding microarray (RPBM); PBS, 2% BSA, 51.3 ng/ul salmon testes DNA, 50 uM zinc acetate, 200 nM TF, 25 C, 1 h; high values mean tight binding). Settings: protein: recombinant; tags: N-terminal polyhistidine and DsRed monomer fusion (pET32a); label: CyDye5-dUTP incorporated in the synthesized complementary strand; 3' TTTTT single-stranded linker to array surface; dsDNA, one strand shown.
Outline: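 Ni–NTA purification followed expression in E. coli BL21-CodonPlus of transcription factors fused N-terminally to a polyhistidine tag and DsRed. At 200 nM in PBS with 2% BSA, salmon testes DNA and 50 µM zinc acetate, the protein was incubated for 1 h at 25 °C with a custom Agilent array that had been primer-extended with Cy5-dUTP and blocked with 2% BSA. After washing, the array was read on an Axon 4000B scanner. The binding signal is per-feature fluorescence intensity in arbitrary units.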

Sequence | binding signal
GTTGTTTCACCTGATCAGCTAGGTACAATTGTCTTTCTTCCGGAGTCACCTAGTGCAG | 8800 fluorescence intensity (a.u.)
CGTTCGCGTTTCGGTTTGACCGCGCGTCTCGCCTAGATTTCGGAGTCACCTAGTGCAG | 8650 fluorescence intensity (a.u.)
TTTCTGGGATATTCCATCTCATTACAGCACTCATTCTTTACGGAGTCACCTAGTGCAG | 9350 fluorescence intensity (a.u.)
GTGGCCGTGGTAGGGAGAGGTGGTGGTGCGCGCGCGGTAACGGAGTCACCTAGTGCAG | 8150 fluorescence intensity (a.u.)
TTTTTTCTGTTTTTTTCTTTCCGTATCTTTTTCAGTTTTTCGGAGTCACCTAGTGCAG | 14200 fluorescence intensity (a.u.)
TCCCATGTCACCGGCACGTACCTTTTCCTTTCCGAAATAACGGAGTCACCTAGTGCAG | 8740 fluorescence intensity (a.u.)
GCAGTTGTCAGTGTTGGTGGCATCAAAACCCTAGTTCATCCGGAGTCACCTAGTGCAG | 13100 fluorescence intensity (a.u.)
AAAACTACACTGTACTTTTTTTTTCTTTTTCTTTTTTCTGCGGAGTCACCTAGTGCAG | 10100 fluorescence intensity (a.u.)
GATCTCATCCGTACAAACACACAAGAATGGCTATGATTTCCGGAGTCACCTAGTGCAG | 8570 fluorescence intensity (a.u.)
TTCGTATCTAACGTTTGACTGCCCGTCTTATAATAATTTTCGGAGTCACCTAGTGCAG | 10400 fluorescence intensity (a.u.)
GGTGGCGGTGGCTGCTAGGGTTTTTTTTTTAGGAGGGGAACGGAGTCACCTAGTGCAG | 12600 fluorescence intensity (a.u.)
ATATTGTAGTAATATATTTTTAAGCTTTTTAGCTAATATTCGGAGTCACCTAGTGCAG | 8090 fluorescence intensity (a.u.)
ACTTATTCCATTCAATTTCAGGTTATTTGGATGGGCTTTCCGGAGTCACCTAGTGCAG | 9720 fluorescence intensity (a.u.)
ATTCTTCTCAGAGTGTGGGTGTTTCTCGAGCTATGCATCTCGGAGTCACCTAGTGCAG | 8250 fluorescence intensity (a.u.)
GAGTAAAAGTTTGACATGTTTCCATTTTTATCACACGTTTCGGAGTCACCTAGTGCAG | 9040 fluorescence intensity (a.u.)
AAATCTTTCTCAACTCTTTCTTAAATCTCTTGTTTTCCTTCGGAGTCACCTAGTGCAG | 10300 fluorescence intensity (a.u.)
GTTCATTTTATAGTCTAGCAAAATTTCCTCTCTTTTTTTTCGGAGTCACCTAGTGCAG | 10700 fluorescence intensity (a.u.)
ATTTCCTATTCAACGGTTGCATGTTTTTTTCTTCAATTTACGGAGTCACCTAGTGCAG | 13900 fluorescence intensity (a.u.)
TTTACCCCTACCCCACATGTCAGTGACAGAGTCTGCGGGGCGGAGTCACCTAGTGCAG | 8570 fluorescence intensity (a.u.)
GCGACACGACGTCATTTTCTCCCCTGCACCGGATAAACAACGGAGTCACCTAGTGCAG | 8710 fluorescence intensity (a.u.)
CACACCGCTCCACTCCGCCGCTGCCCTGCTCCACTCCGTCCGGAGTCACCTAGTGCAG | 8580 fluorescence intensity (a.u.)

Sequence | binding signal
GCGCATTCCTATTAAGAGGTTTTTTACTGTCCTTCAGGTTCGGAGTCACCTAGTGCAG | 8450 fluorescence intensity (a.u.)
CTCAAACCGCGTCGCCATCATTTTCGATTATAATATTTCTCGGAGTCACCTAGTGCAG | 11600 fluorescence intensity (a.u.)
TTGCTGTTACTCTTTTTCACTTTCGTCATGTCTTCATCTTCGGAGTCACCTAGTGCAG | 9950 fluorescence intensity (a.u.)
CTTCGCCTTCGCCTCGCCGCGCCGCCGCCGTCTAGCCCTTCGGAGTCACCTAGTGCAG | 9790 fluorescence intensity (a.u.)
ACCAAACAAGCTTCTGCTTCGTCTGCAGCCACCTGACATCCGGAGTCACCTAGTGCAG | 8940 fluorescence intensity (a.u.)
TACAGCGTTGGCCACGAGAGAGTTCAGTTGCTTTGTTTTTCGGAGTCACCTAGTGCAG | 8120 fluorescence intensity (a.u.)
TTAATTTCACGGTTTCATCTCGACATCTCATCATCTGTTTCGGAGTCACCTAGTGCAG | 12100 fluorescence intensity (a.u.)
AGGTTTACTCACAGAAAGCGTCGGGGCGGGTCTGGGAGGGCGGAGTCACCTAGTGCAG | 11800 fluorescence intensity (a.u.)
AAATTTCCCAAAACGCGGGTGCGGTCACTATTAAATCACCCGGAGTCACCTAGTGCAG | 8180 fluorescence intensity (a.u.)
CCATTTATTTTATTCAAACAATTTACGTAAATTATATTATCGGAGTCACCTAGTGCAG | 8070 fluorescence intensity (a.u.)
GTTCGACTTTATACTTCGGGTTTTTTTTTTTTTTAGAGTTCGGAGTCACCTAGTGCAG | 10200 fluorescence intensity (a.u.)
ATCTTCGGTGTACTATTGGGTCATGATTTGACCCATCTAACGGAGTCACCTAGTGCAG | 24900 fluorescence intensity (a.u.)
CACCTGTCTGTCTCACATATTTTCTTGGTTCCTGTGTCTACGGAGTCACCTAGTGCAG | 8330 fluorescence intensity (a.u.)
CTTTAGTCTTCTGTCCTCTTTTAACTCCATATACGTAGGACGGAGTCACCTAGTGCAG | 8390 fluorescence intensity (a.u.)
TTGTACATTTTTTCTCTTGATGTATCTCTTTTAATACTTTCGGAGTCACCTAGTGCAG | 9980 fluorescence intensity (a.u.)
TATATATATATATATATATATATAAATAAATCCTTCTACACGGAGTCACCTAGTGCAG | 12100 fluorescence intensity (a.u.)
TTGACCCAAGAACGGAGGAGGGATAGGGCGGGCGGCGATGCGGAGTCACCTAGTGCAG | 8080 fluorescence intensity (a.u.)
AGCTGCTAGTAAAAACCGGGGAGTTGGTGTGGGTGGGATTCGGAGTCACCTAGTGCAG | 11200 fluorescence intensity (a.u.)
CCTTCATATTCGGCCAATGCCTTCTATATATGTTCTAGCTCGGAGTCACCTAGTGCAG | 9760 fluorescence intensity (a.u.)
TAAATTGAGGGATGACATATATCTTGTTTTACGGTTGGGGCGGAGTCACCTAGTGCAG | 8290 fluorescence intensity (a.u.)
AGCCTCAGATCGCTTGCCAGCCATCTATCCCATTCACTGGCGGAGTCACCTAGTGCAG | 8130 fluorescence intensity (a.u.)

As a short view, part of the list above:
Sequence | binding signal
GCGCATTCCTATTAAGAGGTTTTTTACTGTCCTTCAGGTTCGGAGTCACCTAGTGCAG | 8450 fluorescence intensity (a.u.)
CTCAAACCGCGTCGCCATCATTTTCGATTATAATATTTCTCGGAGTCACCTAGTGCAG | 11600 fluorescence intensity (a.u.)

Next part.

Sequence | binding signal
GATCAATATGTAACATATCACTCCGCAAACATGTAAGTTCCGGAGTCACCTAGTGCAG | 8030 fluorescence intensity (a.u.)
ATGTAGGGGTTCCTGCTGCTGCTGTTCTGCCCATTCAACACGGAGTCACCTAGTGCAG | 8880 fluorescence intensity (a.u.)
CAGCATTTGTGATTGGGTAGTATGGGTTGCTCGATCTTTCCGGAGTCACCTAGTGCAG | 12300 fluorescence intensity (a.u.)
CAACTCCCTGCCTCGCTGCTGCCTCGCACAGTCGCGTTCCCGGAGTCACCTAGTGCAG | 8870 fluorescence intensity (a.u.)
GCACCAACCGCGCCATGTGCGGGGCGGGGCGGCCGTGCTTCGGAGTCACCTAGTGCAG | 10500 fluorescence intensity (a.u.)
GTCAAACTTTGTATACGGATTCTCACGACTGTACTTATTTCGGAGTCACCTAGTGCAG | 8380 fluorescence intensity (a.u.)
GTGGGTATATTTGGTTGATCACATCTGCAGCCATCAAAGACGGAGTCACCTAGTGCAG | 9400 fluorescence intensity (a.u.)
AACTCTATTTCTCCTCTATCTCTATCTATCTATCTATCTACGGAGTCACCTAGTGCAG | 12200 fluorescence intensity (a.u.)
TGCACAGGTCAGTAACTTAATTCGTTTTTATTTTTTTATACGGAGTCACCTAGTGCAG | 8870 fluorescence intensity (a.u.)
ATAATGAAATTTCATAGGGGAGGGGCTGGGCTTTATAGGGCGGAGTCACCTAGTGCAG | 13500 fluorescence intensity (a.u.)
CTGTGATCCAAATAAACCTTAAATGTTATACTACTTCTGTCGGAGTCACCTAGTGCAG | 8320 fluorescence intensity (a.u.)
GGAGGGGACGACGATGGTGGGGTGGGTGGTGTCCGGGGTGCGGAGTCACCTAGTGCAG | 19100 fluorescence intensity (a.u.)
GAATTCTGTTACTAATTCTGTTCCGATTTCCACTCGAGCACGGAGTCACCTAGTGCAG | 8200 fluorescence intensity (a.u.)
CTAAATGTTTGACGCCGTTGACTTTTTAAATATGTTTGACCGGAGTCACCTAGTGCAG | 32300 fluorescence intensity (a.u.)
GTGTGGAGGTGGTGGGGAGTGTGAGGAGAGGGAGGGGATGCGGAGTCACCTAGTGCAG | 18000 fluorescence intensity (a.u.)
CTCTCGCGCCGGAGCACAGCTATAGCTGATTTCTTTAATTCGGAGTCACCTAGTGCAG | 9580 fluorescence intensity (a.u.)
ATACACACATCACATCTTGAAGTCCGTGCTGCAGATCTGCCGGAGTCACCTAGTGCAG | 9620 fluorescence intensity (a.u.)
CTTGGTGGTTCTTTTCTTCTTCTAGATTTATCCCCATTTTCGGAGTCACCTAGTGCAG | 16700 fluorescence intensity (a.u.)
TGGCCTGCTGCTCTTCTCTTTTATCTTTTATCTCTTTAAACGGAGTCACCTAGTGCAG | 8370 fluorescence intensity (a.u.)
AGAACACAAGCATCTTCTTTTGTGTCATTTGCTACTGACACGGAGTCACCTAGTGCAG | 11500 fluorescence intensity (a.u.)
TATATCATTATCTTGTGCTTGCGAGCGTGTTCCCTGCAACCGGAGTCACCTAGTGCAG | 8810 fluorescence intensity (a.u.)

Some of the entries above in another layout:
Sequence	binding signal
GAATTCTGTTACTAATTCTGTTCCGATTTCCACTCGAGCACGGAGTCACCTAGTGCAG	8200 fluorescence intensity (a.u.)
CTAAATGTTTGACGCCGTTGACTTTTTAAATATGTTTGACCGGAGTCACCTAGTGCAG	32300 fluorescence intensity (a.u.)

The listing continues.

Sequence | binding signal
CCCACCCGCAACCCGCGCCGCCGCCGCCGCCATCCGCCTCCGGAGTCACCTAGTGCAG | 8650 fluorescence intensity (a.u.)
TCGCCTGACCTGATCGCCGTGAAGTTCCATCCCGATCGACCGGAGTCACCTAGTGCAG | 9780 fluorescence intensity (a.u.)
ACGGTTTGTGTGAGTTTAGGGGTAAATATTTCTGCTTTTGCGGAGTCACCTAGTGCAG | 8320 fluorescence intensity (a.u.)
GTCCCGATTGTCTTGTAAATTATGCTACTTGGCCATGAAACGGAGTCACCTAGTGCAG | 10200 fluorescence intensity (a.u.)
GTTTCTATCCGATCACCTTCACCCTCCGTCTCCAGTAGTACGGAGTCACCTAGTGCAG | 8840 fluorescence intensity (a.u.)
CGTCACTTGAAATCTACCCCGGTATTTTTCTTTTATTTTTCGGAGTCACCTAGTGCAG | 9380 fluorescence intensity (a.u.)
AATTATCTTGGTGTTGGTGCATAATAAACATATATAATGACGGAGTCACCTAGTGCAG | 8360 fluorescence intensity (a.u.)
CCACCTCCGGCGAGCTCCTCACCCACGCAACCATGGTGCTCGGAGTCACCTAGTGCAG | 8580 fluorescence intensity (a.u.)
TAACAGCGCCGACCCCACGACCACCACCGCCGCCGGCATGCGGAGTCACCTAGTGCAG | 8300 fluorescence intensity (a.u.)
TCCGAGGCTCTGACTTCCTAGTTCCCACTTCCGAGCAAACCGGAGTCACCTAGTGCAG | 10500 fluorescence intensity (a.u.)
CGTCGTATTCGGCGGCGGCGGGGAAGCAGGTGGGGAAACGCGGAGTCACCTAGTGCAG | 13100 fluorescence intensity (a.u.)
CTCTCTCATCTGATTCTTGCGTTTTTCCTGTGGTCCAATCCGGAGTCACCTAGTGCAG | 12000 fluorescence intensity (a.u.)
CGAACTTCACTCTACCTCTCTAGTTTTCTTTTTTATCACTCGGAGTCACCTAGTGCAG | 12900 fluorescence intensity (a.u.)
TATATATACCGCTTCCCGCCCCGCACCACAACCCAACTCACGGAGTCACCTAGTGCAG | 8320 fluorescence intensity (a.u.)
GGGCATGTCTTTTTAGCTAATGGATGGTGGATTATAATGGCGGAGTCACCTAGTGCAG | 9510 fluorescence intensity (a.u.)
GCAGCACACTAATCGATCACCGCACTATACACAATACGACCGGAGTCACCTAGTGCAG | 10000 fluorescence intensity (a.u.)
ATCCACCCGCGGCCGCCGCCGACGCCGCCATCGATGCCGGCGGAGTCACCTAGTGCAG | 8300 fluorescence intensity (a.u.)
ATGGTGTGTGATTATTCAATCCATTGTTTTTTACTTTGCGCGGAGTCACCTAGTGCAG | 9570 fluorescence intensity (a.u.)
ATATCCAACGTTTGACCGTTTGTTTTATTTGAAATTTTTTCGGAGTCACCTAGTGCAG | 9460 fluorescence intensity (a.u.)
TCACTGGAAGCTCTCTCACTGACCATCTTTTTTTTTCCTTCGGAGTCACCTAGTGCAG | 10600 fluorescence intensity (a.u.)
CTCGCTGTTCTTCTCTCTTATCTTTTATCTCTTTAAAATACGGAGTCACCTAGTGCAG | 15000 fluorescence intensity (a.u.)
